From PMC5080453
These are yes or no findings as the source states them, for the method shown. Some binding calls cover weakened binding; strength is not graded here.

Sequences of proteins named here, by UniProt entry; tags and fusion partners are left off. Residues count along the entry.
UniProt P18075, residues 293-431: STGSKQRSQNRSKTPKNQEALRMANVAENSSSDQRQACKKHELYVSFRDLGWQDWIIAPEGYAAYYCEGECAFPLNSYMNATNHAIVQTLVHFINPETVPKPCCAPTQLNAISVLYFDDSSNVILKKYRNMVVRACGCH

Legend:
[1] = target: T1, human twisted gastrulation (Tsg), native (glycosylated) (human) (UniProt Q9GZX9); test: SPR; Supplementary Fig. 1; by the methods all interactions other than those of Fig. 4 were run on a Biacore T200, 25 °C, 10 mM Hepes, 150 mM NaCl, 3 mM EDTA, 0.005% Tween-20, pH 7.4, 30 μl/min; who was immobilised was not shown; both purified
T1 sequence (chain, N-linked glycans (three predicted N-linked glycosylation sites)): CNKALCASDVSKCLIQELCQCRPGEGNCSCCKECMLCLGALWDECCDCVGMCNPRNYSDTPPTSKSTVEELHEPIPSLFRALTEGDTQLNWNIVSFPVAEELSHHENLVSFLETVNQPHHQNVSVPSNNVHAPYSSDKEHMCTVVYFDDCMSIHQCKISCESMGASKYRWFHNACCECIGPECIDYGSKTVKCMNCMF

[2] = target: T2, natively deglycosylated human twisted gastrulation (Tsg) (human) (UniProt Q9GZX9); test: as above
T2 sequence (chain, N-linked glycans removed with PNGase-F under non-denaturing conditions): T1 sequence (chain, N-linked glycans (three predicted N-linked glycosylation sites))

Substance: human BMP-7 (from UniProt P18075 293-431) (ligand)
- binding [1]: binds
- binding [2]: binds
